Experimental data from PubChem BioAssay (NCATS).
The inconclusive results got no clear call from the source; some entries with a clear call stand among them for comparison. For some of these results: Potencies of inconclusive entries are doubtful fits and often do not repeat. Active and inactive are the calls of the source. Unless noted, the call rests on the fitted dose curve; in most records, active means well fitted curve in the direction sought with a large enough effect; inconclusive means small, poorly fitted or top-dose-only effect, or another doubt; inactive means no such curve, though single readings can be large; an effect the other way counts as inactive or inconclusive.

Sequences of proteins named here, by UniProt entry; tags and fusion partners are left off. A change or cut given only in a name is not applied to a line headed by its entry.
UniProt P11712, whole entry, looked up: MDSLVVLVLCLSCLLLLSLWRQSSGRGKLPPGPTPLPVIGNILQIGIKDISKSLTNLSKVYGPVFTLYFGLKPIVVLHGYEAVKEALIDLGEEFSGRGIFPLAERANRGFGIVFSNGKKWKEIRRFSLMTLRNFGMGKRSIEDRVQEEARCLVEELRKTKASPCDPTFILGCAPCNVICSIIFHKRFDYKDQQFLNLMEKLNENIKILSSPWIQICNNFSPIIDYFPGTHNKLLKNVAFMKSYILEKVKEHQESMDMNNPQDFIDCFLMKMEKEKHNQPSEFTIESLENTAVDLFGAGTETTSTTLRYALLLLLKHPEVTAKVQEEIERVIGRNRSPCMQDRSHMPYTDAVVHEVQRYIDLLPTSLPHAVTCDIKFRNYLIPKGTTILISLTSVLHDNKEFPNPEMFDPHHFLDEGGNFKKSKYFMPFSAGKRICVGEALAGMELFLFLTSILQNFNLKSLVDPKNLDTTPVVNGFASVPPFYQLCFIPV
UniProt P10635, whole entry, looked up: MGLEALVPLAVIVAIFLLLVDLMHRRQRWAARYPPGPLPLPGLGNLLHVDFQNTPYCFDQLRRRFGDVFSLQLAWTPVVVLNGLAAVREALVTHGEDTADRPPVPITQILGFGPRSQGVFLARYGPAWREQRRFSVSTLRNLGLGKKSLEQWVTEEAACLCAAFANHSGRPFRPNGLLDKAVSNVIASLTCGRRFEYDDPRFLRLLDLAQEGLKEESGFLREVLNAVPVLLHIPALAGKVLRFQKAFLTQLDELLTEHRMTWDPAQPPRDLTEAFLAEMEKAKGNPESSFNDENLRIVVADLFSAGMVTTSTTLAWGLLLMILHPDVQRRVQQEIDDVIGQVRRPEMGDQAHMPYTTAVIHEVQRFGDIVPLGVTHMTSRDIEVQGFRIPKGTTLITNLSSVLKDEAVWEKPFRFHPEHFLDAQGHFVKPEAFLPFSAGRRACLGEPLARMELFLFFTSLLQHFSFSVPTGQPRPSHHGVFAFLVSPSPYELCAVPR
UniProt P08482: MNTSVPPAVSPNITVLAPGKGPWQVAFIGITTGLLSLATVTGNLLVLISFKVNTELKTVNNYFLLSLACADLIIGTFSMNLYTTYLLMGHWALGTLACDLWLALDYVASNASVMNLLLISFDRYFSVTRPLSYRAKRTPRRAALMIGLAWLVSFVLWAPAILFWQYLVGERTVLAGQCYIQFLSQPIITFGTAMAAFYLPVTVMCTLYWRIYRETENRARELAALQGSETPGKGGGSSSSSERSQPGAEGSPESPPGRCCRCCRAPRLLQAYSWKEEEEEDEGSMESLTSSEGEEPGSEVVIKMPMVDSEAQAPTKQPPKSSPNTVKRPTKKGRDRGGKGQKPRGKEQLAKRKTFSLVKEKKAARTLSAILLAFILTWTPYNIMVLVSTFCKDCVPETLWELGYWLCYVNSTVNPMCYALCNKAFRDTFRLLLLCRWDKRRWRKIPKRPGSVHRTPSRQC
UniProt P54132: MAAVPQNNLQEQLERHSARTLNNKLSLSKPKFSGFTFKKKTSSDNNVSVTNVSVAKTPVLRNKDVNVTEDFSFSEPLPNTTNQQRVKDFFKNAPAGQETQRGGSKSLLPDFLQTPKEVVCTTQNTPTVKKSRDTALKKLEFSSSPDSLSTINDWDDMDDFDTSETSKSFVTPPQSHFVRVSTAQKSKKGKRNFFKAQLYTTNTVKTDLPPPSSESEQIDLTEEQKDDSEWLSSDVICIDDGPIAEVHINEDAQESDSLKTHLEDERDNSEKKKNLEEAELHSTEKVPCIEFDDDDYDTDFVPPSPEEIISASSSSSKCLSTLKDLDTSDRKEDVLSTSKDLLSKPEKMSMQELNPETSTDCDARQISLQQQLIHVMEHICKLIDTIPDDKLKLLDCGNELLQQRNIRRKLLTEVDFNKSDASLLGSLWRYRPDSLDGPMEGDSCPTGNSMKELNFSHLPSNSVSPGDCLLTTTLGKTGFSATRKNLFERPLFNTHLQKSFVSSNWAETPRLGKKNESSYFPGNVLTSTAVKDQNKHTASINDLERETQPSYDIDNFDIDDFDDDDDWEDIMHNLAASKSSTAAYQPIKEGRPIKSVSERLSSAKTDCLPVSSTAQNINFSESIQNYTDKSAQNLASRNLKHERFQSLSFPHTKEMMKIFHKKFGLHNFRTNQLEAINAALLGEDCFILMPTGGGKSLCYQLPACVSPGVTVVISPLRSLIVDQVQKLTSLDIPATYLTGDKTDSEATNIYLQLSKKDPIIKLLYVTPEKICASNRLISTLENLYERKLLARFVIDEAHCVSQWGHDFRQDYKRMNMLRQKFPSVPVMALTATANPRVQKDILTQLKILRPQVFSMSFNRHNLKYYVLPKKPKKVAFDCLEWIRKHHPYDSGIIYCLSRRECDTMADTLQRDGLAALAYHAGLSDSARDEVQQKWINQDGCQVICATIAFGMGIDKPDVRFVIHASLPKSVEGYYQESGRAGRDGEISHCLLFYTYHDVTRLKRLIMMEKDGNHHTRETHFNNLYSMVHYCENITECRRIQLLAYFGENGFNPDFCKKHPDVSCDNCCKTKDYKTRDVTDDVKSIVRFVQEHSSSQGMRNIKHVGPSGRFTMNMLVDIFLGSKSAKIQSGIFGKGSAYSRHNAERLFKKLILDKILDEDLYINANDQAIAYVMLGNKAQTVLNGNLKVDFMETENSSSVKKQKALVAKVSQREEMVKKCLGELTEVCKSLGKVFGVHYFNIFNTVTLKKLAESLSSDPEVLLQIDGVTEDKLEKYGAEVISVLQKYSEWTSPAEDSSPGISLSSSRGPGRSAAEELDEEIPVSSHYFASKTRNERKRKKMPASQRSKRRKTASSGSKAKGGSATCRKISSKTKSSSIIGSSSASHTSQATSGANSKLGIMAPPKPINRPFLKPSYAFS
UniProt O94782: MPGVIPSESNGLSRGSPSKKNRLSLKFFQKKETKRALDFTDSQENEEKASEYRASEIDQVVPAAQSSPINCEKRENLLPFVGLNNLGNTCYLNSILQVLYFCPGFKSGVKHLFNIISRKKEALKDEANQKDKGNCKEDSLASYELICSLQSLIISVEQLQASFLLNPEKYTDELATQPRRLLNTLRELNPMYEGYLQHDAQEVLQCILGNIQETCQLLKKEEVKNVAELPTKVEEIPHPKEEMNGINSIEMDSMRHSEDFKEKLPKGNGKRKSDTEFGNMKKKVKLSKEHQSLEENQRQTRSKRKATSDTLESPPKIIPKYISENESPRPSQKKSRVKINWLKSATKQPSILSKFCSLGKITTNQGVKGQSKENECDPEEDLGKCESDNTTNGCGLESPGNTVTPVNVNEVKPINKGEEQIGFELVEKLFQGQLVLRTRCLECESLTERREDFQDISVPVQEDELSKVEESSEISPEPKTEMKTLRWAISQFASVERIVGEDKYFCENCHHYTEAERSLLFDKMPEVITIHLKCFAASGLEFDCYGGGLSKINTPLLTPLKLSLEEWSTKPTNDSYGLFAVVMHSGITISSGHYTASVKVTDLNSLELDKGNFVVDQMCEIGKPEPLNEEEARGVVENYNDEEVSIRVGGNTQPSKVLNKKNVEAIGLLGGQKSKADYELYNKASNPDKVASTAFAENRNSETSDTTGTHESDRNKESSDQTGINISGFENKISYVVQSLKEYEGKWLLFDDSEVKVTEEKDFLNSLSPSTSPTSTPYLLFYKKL

Key:
[1] = Stat Signaling Pathway (AID 446; active means well fitted curve in either direction with a large enough effect, not every such curve was filed as active; inconclusive means small, poorly fitted or top-dose-only effect, or another doubt;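 further: ME-180 cervical cancer cells given 40 pM IL-6 alongside compound; SIE-controlled beta-lactamase reporter measured as 460/530 nm FRET emission ratio; on the % scale 0 is the no-effect control and ±100 the full control effect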); details: ME-180 SIE beta-lactamase reporter, IL-6 stimulated, 5 h; at 38 µM (top of the series) unless noted
Procedure, shortened: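 Emission at 460 and 530 nm (excitation 405 nm) reports SIE-controlled beta-lactamase in ME-180 cells. Cells received compound with 40 pM IL-6 for 5 hrs at 37 C; data scaled between 300 pM IL-6 and 125 nM JAK-inhibitor controls.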

[2] = target: Mitogen-activated protein kinase 10 (Mus musculus) (UniProt Q61831); assay: JNK3 AlphaScreen Assay (AID 530; active means well fitted curve in either direction with a large enough effect, not every such curve was filed as active; inconclusive means small, poorly fitted or top-dose-only effect, or another doubt;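 further: kinase came from lysate of stimulated human HepG2 cells; potency means the concentration at half of the fitted maximal effect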); details: JNK3 lysate, c-Jun phosphorylation; activity change, negative = inhibition: at 57.1 µM (top of the series)
Procedure, shortened: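 Activity was read by AlphaScreen after JNK3-containing HepG2 lysate (cytokine pre-activated) phosphorylated biotinylated GST-cJun with 10 uM ATP at room temperature. Phospho-Ser73 cJun antibody with Protein-A acceptor beads provided detection.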

[3] = target: Cytochrome P450 2C9 (Homo sapiens) (UniProt P11712); assay: qHTS Assay for Inhibitors and Substrates of Cytochrome P450 2C9 (AID 883); further: on the % scale 0 is the no-effect control and ±100 the full control effect; nearly all actives have a fitted effect of over 60% in size
Procedure, shortened: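 Signal: luciferase luminescence reporting luciferin produced by CYP2C9. Conditions: 10nM enzyme, Luciferin-H 100uM at KM, 25mM KPO4, 37C, 60 min NADPH-driven reaction. Reference: 57uM sulphaphenazole as 100% inhibition.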

[4] = target: Cytochrome P450 2D6 (Homo sapiens) (UniProt P10635); assay: qHTS Assay for Inhibitors and Substrates of Cytochrome P450 2D6 (AID 891);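 further: luciferin methyl ether substrate demethylated by CYP2D6 with NADPH regeneration; on the % scale 0 is the no-effect control and ±100 the full control effect; nearly all actives have a fitted effect of over 60% in size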
Procedure, shortened: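 Luminescent read-out of luciferin formed by 5 nM human CYP2D6 demethylating 30 uM Luciferin-ME EGE (Km level) over 60 min at room temperature after NADPH regeneration addition. Data normalized to full inhibition by 1.43 uM quinidine.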

[5] = qHTS Assay for Identification of Small Molecule Antagonists for NFkB Signaling Pathway (AID 895; active means well fitted inhibition curve with a large enough effect in the signal ratio, with a control signal flat, not every such curve was filed as active; inconclusive means small, poorly fitted or top-dose-only effect, or effect the other way, or a change in a side signal; the % refers to the signal ratio; further: on the % scale 0 is the no-effect control and ±100 the full control effect); details: NFkB beta-lactamase reporter cells, FRET ratio 460/530; activity change, negative = inhibition: at 38.3 µM (top of the series) unless noted
Procedure, shortened: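 ME-180 NFkB-bla cells (beta-lactamase under NFkB response element), plated overnight, treated with compound then 10 pM TNF alpha (about EC50) for 5 hrs at 37 C. LiveBLAzer FRET read at 460/530 nm emission, 405 nm excitation.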

[6] = qHTS Assay for Identification of Small Molecule Agonists for Thrombopoietin (TPO) Signaling Pathway (AID 917); further: on the % scale 0 is the no-effect control and ±100 the full control effect
Procedure, shortened: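 Cell-based luciferase reporter screen. Mouse Ba/F3 line stably expressing human TPO receptor; IL-3 removed overnight before plating. Co-treatment with compound and EC50 TPO (26 pM), 24 hrs at 37 C, then luminescence.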

[7] = qHTS Assay for Identification of Small Molecule Antagonists for Thrombopoietin (TPO) Signaling Pathway (AID 918); details: TPO-dependent cell signaling reporter, antagonist mode; activity change, negative = inhibition: at 38.5 µM (top of the series)
Procedure, shortened: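 Inhibitors of TPO signaling are sought by stimulating IL-3-starved murine Ba/F3 cells (human TPO receptor, Glycoprotein IIb-driven luciferase) with TPO at its EC50 of 26 pM alongside compound. After 24 hrs at 37 C, reporter luminescence is measured.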

[8] = Primary qHTS for small molecule stabilizers of the endoplasmic reticulum resident proteome: Secreted ER Calcium Modulated Protein (SERCaMP) assay (AID 1508630); details: SH-SY5Y GLuc-SERCaMP (Gaussia luciferase released on ER calcium loss) secretion, thapsigargin, luminescence; activity change, negative = inhibition: at 38.4 µM (top of the series); further: potency means the concentration at half of the fitted maximal effect
Procedure, shortened: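 The SH-SY5Y reporter protocol was run at 3 concentrations up to 38.3 uM (primary) or 11 concentrations (follow-up): 16 h compound, 100 nM thapsigargin for 4 h, then extracellular luciferase luminescence.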

[9] = NFAT Signaling Pathway (AID 444; active means well fitted curve in either direction with a large enough effect, not every such curve was filed as active; inconclusive means small, poorly fitted or top-dose-only effect, or another doubt;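 further: carbachol stimulus at about its EC50 of 1 µM final; on the % scale 0 is the no-effect control and ±100 the full control effect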); details: Jurkat NFAT-bla M1, carbachol, beta-lactamase ratio, 5 h; at 7.69 µM (top of the series) unless noted
Procedure, shortened: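 Jurkat cells with NFAT-driven β-lactamase reporter and co-expressed M1 receptor, stimulated with carbachol (final 1 uM, ~EC50), compound titration, 5 h at 37 °C. CCF4 loaded 1 h at RT; 460/530 nm ratio gave %activity and AC50.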

[10] = qHTS Assay for Identification of Small Molecule Agonists for Hypoxia Response Element Signaling Pathway (AID 914; active means well fitted activation curve with a large enough effect in the signal ratio, with a control signal flat, not every such curve was filed as active; inconclusive means small, poorly fitted or top-dose-only effect, or effect the other way, or a change in a side signal; the % refers to the signal ratio; further: % of control where 0% means no effect); details: ME-180 HRE-bla reporter, beta-lactamase ratio, CoCl2, 17 h; activation: active compounds read high
Procedure, shortened: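 HRE-bla ME-180 cells with beta-lactamase reporter under hypoxia response element, compounds with EC50 CoCl2 for 17 hours at 37 C. CCF4 substrate, 460nm/530nm emission ratio gave %Activity; AC50 from titration series.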

[11] = qHTS Assay for Lipid Storage Modulators (AID 1519; calls by dose curve; further: potency means the concentration at half of the fitted maximal effect); details: Drosophila S3 cells, BODIPY lipid droplet/cell ratio, laser cytometry, cells loaded with oleic acid; activity change, negative = inhibition: at 57.5 µM (top of the series) unless noted
Procedure, shortened: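 Cells seeded at 5,000 per well were treated with compounds over a concentration series and loaded with oleic acid (400 uM, as added). Lipid droplet fluorescence (488 nm excitation, 500-530 nm channel) was read by laser-scanning cytometry and normalized to 20 uM Triacsin C.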

[12] = AP1 Signaling Pathway (AID 357; active means well fitted curve in either direction with a large enough effect, not every such curve was filed as active; inconclusive means small, poorly fitted or top-dose-only effect, or another doubt); details: ME-180 (cervical carcinoma) AP-1-bla reporter, EGF-induced, beta-lactamase ratio, 5 h; at 17.2 µM (top of the series) unless noted
Procedure, shortened: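 Modulation of EGF-driven AP-1 transcription was assessed with a beta-lactamase reporter in ME-180 cells. Compound and EC50 EGF were co-incubated 5 hours at 37 °C before 2.5-hour CCF4 loading at room temperature and dual-emission reading.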

[13] = target: Muscarinic acetylcholine receptor M1 (Rattus norvegicus) (UniProt P08482); assay: qHTS Assay for Antagonists of Acetylcholine Muscarinic M1 Receptor: Kinetic Measurement of Intracellular Calcium Response (AID 943); further: potency means the concentration at half of the fitted maximal effect; nearly all actives have a fitted effect of over 75% in size
Procedure, shortened: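 Antagonism is measured as inhibition of the carbachol-evoked calcium rise in CHO cells transfected with rat M1. Cells are dye-loaded, exposed to compound for 10 min, then stimulated with 100 nM carbachol (EC80).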

[14] = target: Muscarinic acetylcholine receptor M1 (Rattus norvegicus) (UniProt P08482); assay: qHTS Assay for Antagonists of Acetylcholine Muscarinic M1 Receptor: Measurement of IP-One Response (AID 944); further: potency means the concentration at half of the fitted maximal effect; nearly all actives have a fitted effect of over 75% in size
[15] = target: Endonuclease 4 (Escherichia coli (strain K12)) (UniProt P0A6C1); assay: Counterscreen for APE1 Inhibitors: qHTS Validation Assay for Inhibitors of Endonuclease IV (AID 1708); further: on the % scale 0 is the no-effect control and ±100 the full control effect
Procedure, shortened: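 Conditions: 2 nM enzyme, 50 nM TAMRA/BHQ-2 substrate, pH 7.5 Tris buffer with 2 mM MgCl2, RT. Compound preincubation 15 min; readout three fluorescence reads 60 s apart, third-minus-first.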

[16] = qHTS for differential inhibitors of proliferation of Plasmodium falciparum line 7G8 (AID 1815);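 further: potency means the concentration at half of the fitted maximal effect; parasite growth measured after three days of incubation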
[17] = target: RecQ-like DNA helicase BLM (Homo sapiens) (UniProt P54132); assay: qHTS Validation Assay for Inhibitors of Bloom's syndrome helicase (BLM) (AID 2364);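 further: plate controls were DMSO vehicle for no effect and enzyme-free control for full effect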
Procedure, shortened: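 50 nM BLM preincubated 15 min at room temperature with compound in pH 8.0 Tris buffer containing 2.5 ug/ml poly(dI-dC); started with 200 nM TAMRA/BHQ-2 forked duplex and 2 mM ATP (final). Unwinding read as TAMRA fluorescence increase, two reads 2 h apart.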

[18] = High Content Imaging Cell-Based qHTS for Inhibitors of the mTORC1 Signaling Pathway in MEF Cells (AID 2667);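 further: Tsc2-/- p53-/- MEFs stably re-expressing wild-type Tsc2 exposed 24 h; plate controls were DMSO wells for no effect and rapamycin control wells for full effect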
Procedure, shortened: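 Read-out is the share of phospho-rpS6-positive cells per well, from Hoechst-normalized Alexa-488 Ser235/236 staining imaged on IN Cell. Cells: WT Tsc2-expressing Tsc2-/-, p53-/- MEFs exposed to compound for 24 hrs.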

[19] = Quantitative high throughput screen for delayed death inhibitors of the malarial parasite plastid, 96 hour incubation (AID 488745); further: potency means the concentration at half of the fitted maximal effect; nearly all actives have a fitted effect of over 70% in size
Procedure, shortened: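 Readout is firefly luciferase luminescence from an integrated reporter in P. falciparum; lower signal marks inhibited growth. Cultures at 2% hematocrit and 0.1% parasitemia were treated with compound across two generations (96 h, 37 C, 5% CO2).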

[20] = qHTS profiling for inhibitors of Plasmodium falciparum proliferation (AID 504749); further: nearly all actives have a fitted effect of over 60% in size; further: potency means the concentration at half of the fitted maximal effect;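 on activity, negative = inhibition: 0% = DMSO vehicle and full inhibition = artemisinin control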; details: P. falciparum in erythrocytes, SYBR Green DNA, 72 h; Potency: parasite line B unless noted; series mostly up to 28.7 µM
Procedure, shortened: (§1)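 Each compound contacts P. falciparum-infected red blood cells for 72 h at 37 C; lysis buffer (Tris, EDTA, saponin, Triton X, SYBR Green I) is added and fluorescence measured next morning; values normalized to controls.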

7G8 = assay: as above; details: P. falciparum in erythrocytes, SYBR Green DNA, 72 h; series mostly up to 28.7 µM
Procedure, shortened: as §1

CP215 = assay: as above; details: P. falciparum in erythrocytes, SYBR Green DNA, 72 h; series mostly up to 28.7 µM
Procedure, shortened: as §1

CP256 = assay: as above; details: P. falciparum in erythrocytes, SYBR Green DNA, 72 h; series mostly up to 28.7 µM
Procedure, shortened: as §1

CP262 = assay: as above; details: P. falciparum in erythrocytes, SYBR Green DNA, 72 h; series mostly up to 28.7 µM
Procedure, shortened: as §1

CP266 = assay: as above; details: P. falciparum in erythrocytes, SYBR Green DNA, 72 h; series mostly up to 28.7 µM
Procedure, shortened: as §1

CP315 = assay: as above; details: P. falciparum in erythrocytes, SYBR Green DNA, 72 h; series mostly up to 28.7 µM
Procedure, shortened: as §1

DIV14 = assay: as above; details: P. falciparum in erythrocytes, SYBR Green DNA, 72 h; series mostly up to 28.7 µM
Procedure, shortened: as §1

GB4 = assay: as above; details: P. falciparum in erythrocytes, SYBR Green DNA, 72 h; series mostly up to 28.7 µM
Procedure, shortened: as §1

SC27B = assay: as above; details: P. falciparum in erythrocytes, SYBR Green DNA, 72 h; series mostly up to 28.7 µM
Procedure, shortened: as §1

[21] = target: Ubiquitin carboxyl-terminal hydrolase 1 (Homo sapiens) (UniProt O94782); assay: Inhibitors of USP1/UAF1: Pilot qHTS (AID 504865); further: potency means the concentration at half of the fitted maximal effect; nearly all actives have a fitted effect of over 35% in size
Procedure, shortened: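 In 50mM HEPES pH 7.8 containing 0.5mM EDTA, 1mM TCEP, 0.1 mg/ml BSA and 0.01% Tween-20, 1nM USP1/UAF1 is exposed to compound for 15 min, then Ub-Rho (150nM final) is added and fluorescence is read over time.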

N[C@H](C(=O)O)c1cc(=O)[nH]o1
inactive: Potency [3] | Potency [4] | Potency [6]
inconclusive: activity, negative = inhibition [1] 30.3% [activator] | Potency [2] 31.6 µM [activator, partial curve, poor fit] | activity change, negative = inhibition [5] -34.3% [at 38.3 µM, stimulated with 10 pM TNF alpha] | activity change, negative = inhibition [7] -5.67% [phenotype inactive] | Potency [8] 31.6 µM [inhibitor, partial curve]

O=C(Oc1ccccc1)N1CCC2(CC1)CN(Cc1ccncc1)C2
inactive: Potency [8]
inconclusive: activity change, negative = inhibition [9] -67% [inhibitor] | activation [10] -16.6% | activity change, negative = inhibition [11] 5.9%

c1ccc(CN2CCCC3(CCNCC3)C2)cc1
inactive: activity change, negative = inhibition [12] 1.13% [at 7.69 µM] | Potency [8]
inconclusive: activity change, negative = inhibition [9] -33.5% [inhibitor]

c1ccc(N2CC3(CCNCC3)C2)nc1
inconclusive: activity change, negative = inhibition [9] -32.4% [inhibitor]
inactive: Potency [8]

COc1ccc(NC(=O)N2CCC3(CC2)CCN(C(=O)Oc2ccccc2)CC3)cc1
inconclusive: Potency [8] 35.5 µM [inhibitor, partial curve]
inactive: activity, negative = inhibition [1] -5.33% [at 7.69 µM] | activation [10] -18.1%

c1csc(CN2CCC3(CCNCC3)CC2)n1
inconclusive: activation [10] 28%
inactive: Potency [11] | Potency [8]

c1ccc2cc(CC3=NCCN3)ccc2c1
inconclusive: activity change, negative = inhibition [7] -11.8% [phenotype inactive] | Potency [13] 0.0071 µM [inhibitor, full curve, poor fit] | Potency [14] 8.91 µM [inhibitor, full curve, poor fit] | Potency [16] 0.282 µM [inhibitor, full curve, poor fit] | Potency [19] 6.57 µM [activator, partial curve, poor fit] | Potency [8] 31.6 µM [inhibitor, partial curve, poor fit] | Potency (7G8) 4.47 µM [inhibitor, partial curve] | Potency (CP266) 12 µM [inhibitor, single point] | Potency (DIV14) 15.1 µM [inhibitor, partial curve, poor fit] | Potency (GB4) 12 µM [inhibitor, partial curve, poor fit]
inactive: Potency [15] | Potency [17] | Potency [18] | Potency [20] | Potency (CP215) | Potency (CP256) | Potency (CP262) | Potency (CP315) | Potency (SC27B)

Cc1c(C(=O)c2ccc3ccccc3c2)c2cccc3c2n1[C@H](CN1CCOCC1)CO3
inconclusive: Potency [2] 39.8 µM [inhibitor, single point] | Potency [11] 14.1 µM [rising, partial curve, poor fit] | Potency [21] 22.4 µM [inhibitor, full curve, poor fit] | Potency [8] 28.2 µM [inhibitor, single point]
